Reference: the supplement of paper PMC7125110
± gives the standard error. The uncertainty is large for many entries.

B1: glmS ribozyme (parent)
chain: AUAAAAGCGCCAGAACUACAGAAAUGUAGUUGACGAGGAGGAGGUUUAUCGAAUUUUCGGCGGAUGCCUCCAAA

Variants of: B1
Assay: self-cleavage kobs at 2500 uM GlcN6P; higher = faster cleavage; RNA array
Conditions: with glucosamine-6-phosphate
Summary of the method: (§1)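 The measurements used barcoded ribozyme variants on sequenced MiSeq chips, transcribed in situ by E. coli RNA polymerase and tracked at 37 °C with a hybridised Cy3 probe. Glucosamine-6-phosphate, 40 μM to 10 mM in HEPES/KCl/Mg(OAc)2 buffer, was flowed in while tiles were imaged over ~14 h. Baseline-normalised signals, also normalised to non-cleaving reference variants, gave per-tile medians that were fit to one- or two-exponential decays for kobs. kcat and KM resulted from weighted Michaelis–Menten fits across concentrations.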

Variant | self-cleavage kobs at 2500 uM GlcN6P [s⁻¹]
AUAAAAGCGCCAGCACUACAGAAAUGUACAUGACGAGGAGGAGGUUUAUCGAAUUUUGGGCGGAUGCCUCCAAA [A14C G29C U30A C58G] | 5.07e-05 ± 3.7e-05
AUAAAAGCGCCAGUACUACAGAAAUGUAGUUGACGAGGAGGAGGUUUAUCGAAUAUUCGGCGGAUGCCUCCAAA [A14U U55A] | 0.00268 ± 0.0014
AUAAAAGCGCCAGAUCUACAGAAAUGUAGUUGACGAGGAGGUGGUUUAUCGAAUUUUCGGCGGAUGCCUCCAAA [A15U A42U] | 2.31e-05 ± 1.7e-05
AUAAAAGCGCCAGUACUACAGAAAUGUAGUUGACGAGGAGGAGGUUUUUCGAAUUUUCGGCGGAUGCCUCCAAA [A14U A48U] | 2.25e-05 ± 1.6e-05
AUAAAAGCGCCAGAUCUACAGAAAUGUAGUUGACGAGGAGAAGGUUUAUCGAAUUUUCGGCGGAUGCCUGCAAA [A15U G41A C70G] | 4.04e-05 ± 2.3e-05
AUAAAAGCGCCAGUACUACAGAAAUGUAGUUGACGAGGAGGAGGUUGAUCGAAUGUUCGGAGGAUGCCUCCAAA [A14U U47G U55G C61A] | 4.69e-05 ± 2.9e-05
AUAAAAGCGCCAGCACUACAGAAAUGUAGUUGACGAGGAGGAGGUUAAUCGAAUUUUGGGCGGAUGGCCCCAAA [A14C U47A C58G C67G U69C] | 5e-05 ± 3.3e-05
AUAAAAGCGCCAGAAAUACAGAAAUGUAGUUGACGAGGAGGAGGUGUAUCGAAUUUUCGGCGGAUGCCUCAAAA [C16A U46G C71A] | 5.44e-05 ± 3.3e-05
AUAAAAGCGCCAGUACUACAGAAAUGUAGUUGACGAGGAGGAGGUUUAACUAAUUUUCGGCGGUUGCGUCCAAA [A14U U49A G51U A64U C68G] | 3.45e-05 ± 3.3e-05
AUAAAAGCGCCAGAGCUACAGAAAUGUAGUUGACGGGGAGGAGGUUUAUCGAAUUUUCGGCGGAUGCGUCCAAA [A15G A36G C68G] | 3.68e-05 ± 3.6e-05
AUAAAAGCGCCAGAUCUACAGAAAUGUAGUUGACGAGGAGGAGGUUUAGGGAAUUUUCGGCGAAUGCCUCCAAA [A15U U49G C50G G63A] | 2.83e-05 ± 2.2e-05
AUAAAAGCGCCAGAACUACAGAAAUAUAGUUGACGAGGAGGAGGUUUAUCGAAUUUUCGACGGAUGCCUCCAAA [G26A G60A] | 2.34e-05 ± 2.2e-05
AUAAAAGCGCCAGAUCUACAGAAAUGUAGUUGUCGAGGAGGAGGUUUAUCGAAUUUUCGGCGGAUGCCUUCAAA [A15U A33U C70U] | 4.45e-05 ± 3.1e-05
AUAAAAGCGCCAGAUCUACAGAAAUGUAGUUGGCGAGGAGGAGGUUGAUCGAAGUUUCGGCGGAUGUCUCAAAA [A15U A33G U47G U54G C67U C71A] | 9.21e-05 ± 5.6e-05
AUAAAAGCGCCAGAAAUACAGAAAUGUAGUUGACGAGGAGGAGGUUUAUGGAAUUUUCUGCGGAUGCCUCCAAA [C16A C50G G59U] | 2.93e-05 ± 2.1e-05
AUAAAAGCGCCAGAGCUACAGAAAUGUAGUUGAGGAGGAGGAGGUUUAUCGAAUUUUCGGCGGAUGCAUCCAAA [A15G C34G C68A] | 3.52e-05 ± 2.6e-05
AUAAAAGCGCCAGGACUACAGAAAUGUAUUUGACGAGGAGGAGGUUUAUCGCAUUUUCGGCGGAUGCAUCCAAA [A14G G29U A52C C68A] | 3.23e-05 ± 2e-05
AUAAAAGCGCCAGAGCUACAGAAAUGUAGUUGAGGAGGAGGAGGUUUAUCGAAUUUUCGGGGAAUGUCUCCAAA [A15G C34G C61G G63A C67U] | 5.6e-05 ± 3e-05

Exported as labelled records: entries from further up
AUAAAAGCGCCAGAUCUACAGAAAUGUAGUUGACGAGGAGGUGGUUUAUCGAAUUUUCGGCGGAUGCCUCCAAA [A15U A42U]
  self-cleavage kobs at 2500 uM GlcN6P [s⁻¹] = 2.31e-05 ± 1.7e-05
AUAAAAGCGCCAGAUCUACAGAAAUGUAGUUGACGAGGAGAAGGUUUAUCGAAUUUUCGGCGGAUGCCUGCAAA [A15U G41A C70G]
  self-cleavage kobs at 2500 uM GlcN6P [s⁻¹] = 4.04e-05 ± 2.3e-05
AUAAAAGCGCCAGGACUACAGAAAUGUAUUUGACGAGGAGGAGGUUUAUCGCAUUUUCGGCGGAUGCAUCCAAA [A14G G29U A52C C68A]
  self-cleavage kobs at 2500 uM GlcN6P [s⁻¹] = 3.23e-05 ± 2e-05

Remaining list, next part.

Variant | self-cleavage kobs at 2500 uM GlcN6P [s⁻¹]
AUAAAAGCGCCAUAACUACAGAAAUGUAGUUGACGAGGAGGAGGUUUAGCGAAUUUUCGGCGGAUGCCUCCAAA [G13U U49G] | 1.99e-05 ± 1.2e-05
AUAAAAGCGCCAGAAGUACAGAAAUGUAGUUGACGAGGAGGAGGUUUAUCGAAUGUUCGGCGGAUGCCACCAAA [C16G U55G U69A] | 4.77e-05 ± 2.6e-05
AUAAAAGCGCCAGCACUACAGAAAUGUAGUUGACGGGGAGGAGGUUUAUCGAAUUUUCGGCGGAUGCCUGCAAA [A14C A36G C70G] | 3.48e-05 ± 3e-05
AUAAAAGCGCCAGAAGUACAGAAAUGUAGUUGACGAGGAGGAGGUUUAUCGAAUUUUCGGUGGAUGCAACCAAA [C16G C61U C68A U69A] | 2.42e-05 ± 2e-05
AUAAAAGCGCCAGCACUACAGAAAUGUAGUUGAGGAGGAGGAGGUUUAACGAAUUUUCGGCGGAUGCCUGCAAA [A14C C34G U49A C70G] | 3.14e-05 ± 1.8e-05
AUAAAAGCGCCAGACCUACAGAAAUGUAGGUGACGAGGAGGAGGUUUAUCGAAUUUUCGGCGGAUGCGUCCAAA [A15C U30G C68G] | 6.69e-05 ± 3.9e-05
AUAAAAGCGCCAGACCUACAGAAAUGUAGUUGACGAGGAGGAGGUUUAUCGAAUUUUCGGCGGAUGCAUCUAAA [A15C C68A C71U] | 2.22e-05 ± 2.1e-05
AUAAAAGCGCCAGGACUACAGAAAUGUAUUUGACGAGGAGGAGUUUUAUCGAAUUUUCGGCGGAUGGCUCCAAA [A14G G29U G44U C67G] | 0.00265 ± 0.0018
AUAAAAGCGCCAGCACUACAGAAAUGUAGUUGACGAGGAGGAGGUCUAUCGAAUUUUCGGCGGAUGCCUCCAAA [A14C U46C] | 0.000148 ± 8.7e-05
AUAAAAGCGCCAGACCUACAGAAAUGUAGUUUACGAGGAGGAGGUUUAUCGAAUGUUGGGCGGAUGCCGCCAAA [A15C G32U U55G C58G U69G] | 9.28e-05 ± 5.1e-05
AUAAAAGCGCCAGAAUUACAGAAAUGUAGUUGACGAGGAGGAGGUUUAUCGUAUUUUCGGCGGAUGCGUCCAAA [C16U A52U C68G] | 4.55e-05 ± 3.7e-05
AUAAAAGCGCCAGAAGUACAGAAAUGUAGUUGACGAGGAGGAGGUUUAUCGUAUUUUCGGCGGAUGCCUCCAAA [C16G A52U] | 3.89e-05 ± 2.3e-05
AUAAAAGCGCCAGCACUACAGAAAUGUAGUUGACGACGAGGAGGUUUAUCGAAUUUUCGGCGGAUGCGUCCAAA [A14C G37C C68G] | 3.54e-05 ± 3e-05
AUAAAAGCGCCAGUACUACAGAAAUGUAGUUGACGAGGAGGAGGUUUAUCGAAUUUUCGGCGGAUCCAUCCAAA [A14U G66C C68A] | 3.33e-05 ± 2.6e-05
AUAAAAGCGCCAGACCUACAGAAAUGUAGUUGACGAGGAGGAGGUUUAUCGAAUUUUCGGCGGAUGCCUGAAAA [A15C C70G C71A] | 4.64e-05 ± 2.7e-05
AUAAAAGCGCCAGAACUACAGAAAUGUAAUUGACGAGGAGGAGGUUUAUUGAAUUUUCGGCGGAUGCAUCCAAA [G29A C50U C68A] | 2.57e-05 ± 2e-05
AUAAAAGCGCCAGUACUACAGAAAUGUAGUUCACGAGGAGGAGGUUUAUGGAAUUUUCUGCGGAUGCCUCCAAA [A14U G32C C50G G59U] | 8.89e-05 ± 5.5e-05

Variants of: B1
Assay: self-cleavage kobs at 10000 uM GlcN6P; higher = faster cleavage; RNA array
Conditions: with glucosamine-6-phosphate
Summary of the method: as §1

Variant | self-cleavage kobs at 10000 uM GlcN6P [s⁻¹]
AUAAAAGCGCCAUAACUACAGAAAUGUAGUUGACGAGGAGGAGGUUUAGCGAAUUUUCGGCGGAUGCCUCCAAA [G13U U49G] | 1.42e-05 ± 1.4e-05
AUAAAAGCGCCAGACCUACAGAAAUGUAGUUGACGAGGAGGAGGUUUAUCGAAUUUUCGGCGGAUGCCUGAAAA [A15C C70G C71A] | 1.71e-05 ± 1.5e-05
